Source: the supplement of paper PMC3334620
The full ranking holds about 33,000 sequences; the median of “E-score (-0.5 to 0.5)” is about -0.0059, and the highest 2% start at about 0.26. The list shows a part of the results.

The sequences below were run against T1, Cin5 (UniProt P40917) (assay: PBM E-score (8-mer binding enrichment) (E-score (-0.5 to 0.5)); higher = stronger / more preferred TF binding). Settings: protein concentration: 100 nM; construct: GST-full length.
T1 sequence: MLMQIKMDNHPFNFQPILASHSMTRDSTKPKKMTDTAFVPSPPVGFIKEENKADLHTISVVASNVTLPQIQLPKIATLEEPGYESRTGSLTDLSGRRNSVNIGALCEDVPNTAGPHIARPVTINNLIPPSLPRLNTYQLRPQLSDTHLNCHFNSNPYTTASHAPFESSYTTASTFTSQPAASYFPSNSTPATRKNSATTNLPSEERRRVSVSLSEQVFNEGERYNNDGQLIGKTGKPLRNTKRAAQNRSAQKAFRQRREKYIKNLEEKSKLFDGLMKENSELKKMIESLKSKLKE
Outline: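 Yeast transcription factors carrying a GST tag, as full-length proteins or DNA-binding domains, were produced by PURExpress in vitro transcription/translation. About 100-200 nM protein was applied to universal all-10-mer Agilent arrays, double-stranded by primer extension on fresh or once-stripped slides. Bound protein was detected with fluorescent anti-GST, and scans were normalised with masliner. The Universal PBM Analysis Suite gave each ungapped eight-base word, pooled with its reverse complement, an E-score, a modified Wilcoxon-Mann-Whitney statistic.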
TAGAGGGA was tested, and the “PBM E-score” value was -0.227. In the case of CGTATACC, the “PBM E-score” value is reported as -0.161. For CTGTAAAC, the “PBM E-score” value was 0.079. For CTTCCCTC, the “PBM E-score” value was -0.215. ACCTCCCT was tested, and the “PBM E-score” value was -0.161. With ACGCCACA the “PBM E-score” value was 0.0272. For AAGCAGGT, the “PBM E-score” value was 0.0448. CGGCATCC was tested, and the “PBM E-score” value was 0.0392. In the case of ACCGGAGC, the “PBM E-score” value is reported as -0.237. For CGAATACG, the “PBM E-score” value was 0.13. For CAACCTCG, the “PBM E-score” value was -4e-05. For CGCCAGTA, the “PBM E-score” value was -0.0438. With AAGGTCCG the “PBM E-score” value was -0.247. GATCGTAC was tested, and the “PBM E-score” value was -0.104. For GATTCGCC, the “PBM E-score” value was 0.0741. With CAGTTTCC the “PBM E-score” value was 0.0648. With TGGCCAAA the “PBM E-score” value was 0.068. For ACCACCTC, the “PBM E-score” value was 0.102. CCCTACAA was tested, and the “PBM E-score” value was 0.101. GGAGGGTA was tested, and the “PBM E-score” value was 0.00188. For AGTCGTCA, the “PBM E-score” value was -0.172. GGCAAAAA was tested, and the “PBM E-score” value was 0.202. In the case of AAAACGCG, the “PBM E-score” value is reported as 0.0911. For ACATCTCT, the “PBM E-score” value was 0.0525. In the case of AACATTTG, the “PBM E-score” value is reported as -0.00436. CTAGCTTC was tested, and the “PBM E-score” value was -0.0242. With ACGAGTAC the “PBM E-score” value was 0.023. In the case of CAACCGTG, the “PBM E-score” value is reported as -0.0494. With CCCACATC the “PBM E-score” value was -0.177. In the case of AGAGGAGG, the “PBM E-score” value is reported as -0.237. With CACGCCCA the “PBM E-score” value was -0.0514. For CGGCGGGA, the “PBM E-score” value was -0.185. In the case of AAGGAATA, the “PBM E-score” value is reported as 0.148. ATACGCCA was tested, and the “PBM E-score” value was -0.0163. With AAATAACC the “PBM E-score” value was 0.00655. In the case of AATTTTGG, the “PBM E-score” value is reported as 0.0399. With CCAAAGAG the “PBM E-score” value was -0.149. With TCGTATAA the “PBM E-score” value was 0.237. In the case of GAGGTGAA, the “PBM E-score” value is reported as -0.119. With CGTCGAAA the “PBM E-score” value was -0.0616. With GCTTCAAC the “PBM E-score” value was 0.00279. For CCCTCCGG, the “PBM E-score” value was -0.413. GGCCGAAC was tested, and the “PBM E-score” value was -0.174. GCATGTCA was tested, and the “PBM E-score” value was 0.0564. With GAGCCGCC the “PBM E-score” value was -0.147. For CTGTCCCA, the “PBM E-score” value was -0.3. In the case of CTCGTCAA, the “PBM E-score” value is reported as -0.157. AGTTATAC was tested, and the “PBM E-score” value was 0.155. In the case of ACCGAGAC, the “PBM E-score” value is reported as -0.102. ACTAAGAC was tested, and the “PBM E-score” value was 0.0182. GTTCGCGA was tested, and the “PBM E-score” value was 0.0116. GAGAGCAA was tested, and the “PBM E-score” value was -0.116. For AGCTTTAA, the “PBM E-score” value was 0.064. For GAATCGTA, the “PBM E-score” value was -0.00198. With GCTAAACC the “PBM E-score” value was -0.261. With AGATTACA the “PBM E-score” value was 0.286. For CCTCAGCC, the “PBM E-score” value was -0.149. For GGTCAACC, the “PBM E-score” value was -0.107. With ATTGGACC the “PBM E-score” value was -0.152. CAGCACCC was tested, and the “PBM E-score” value was -0.208. GCTGGCAC was tested, and the “PBM E-score” value was -0.314. For ATTTGTCC, the “PBM E-score” value was 0.119. ATCAAGAG was tested, and the “PBM E-score” value was 0.133. CTCACCAA was tested, and the “PBM E-score” value was 0.155. With ACGTGCGA the “PBM E-score” value was -0.178. With ATGGAATC the “PBM E-score” value was 0.242. For TAGCTATA, the “PBM E-score” value was 0.0319. CTCATGGC was tested, and the “PBM E-score” value was -0.0334. GCCCTAAC was tested, and the “PBM E-score” value was 0.0312. For AAGGACTG, the “PBM E-score” value was -0.219. For GTTCCCGA, the “PBM E-score” value was -0.11. For CTTTCTCC, the “PBM E-score” value was -0.225. CTAATCAC was tested, and the “PBM E-score” value was 0.248. CTGATGCC was tested, and the “PBM E-score” value was 0.0304. In the case of ACTACATA, the “PBM E-score” value is reported as 0.207. In the case of AACCGCAA, the “PBM E-score” value is reported as 0.166. GTCTCTAA was tested, and the “PBM E-score” value was -0.111. In the case of CCGTCTAG, the “PBM E-score” value is reported as -0.189. ACACAGTC was tested, and the “PBM E-score” value was -0.0243. In the case of CCAAAGCC, the “PBM E-score” value is reported as -0.114. In the case of CGGCCACA, the “PBM E-score” value is reported as -0.177. For GCATGCTA, the “PBM E-score” value was -0.114. With ACGACCCA the “PBM E-score” value was -0.0226. For ATGTATAC, the “PBM E-score” value was 0.198. With CATTGATC the “PBM E-score” value was 0.166. GAACTTTA was tested, and the “PBM E-score” value was -0.102. For GACGAGCC, the “PBM E-score” value was -0.125. For CGGGCCTA, the “PBM E-score” value was -0.236. In the case of CAAAAGGC, the “PBM E-score” value is reported as -0.118. For TTAAACAA, the “PBM E-score” value was 0.0568. For CATCCGGG, the “PBM E-score” value was -0.181. In the case of CATTTTCC, the “PBM E-score” value is reported as 0.198. With GGCACGCC the “PBM E-score” value was -0.293. In the case of GTATACGA, the “PBM E-score” value is reported as 0.00741. With AATGAACA the “PBM E-score” value was 0.203. In the case of AACCTCAT, the “PBM E-score” value is reported as 0.0154. With GCAACAGA the “PBM E-score” value was -0.0911. In the case of ATCCCGCC, the “PBM E-score” value is reported as 0.0426. In the case of ACCACAGG, the “PBM E-score” value is reported as -0.219. For GGCTATAA, the “PBM E-score” value was -0.0423. AGATAGAT was tested, and the “PBM E-score” value was -0.00891. With ATCCTTAG the “PBM E-score” value was -0.0893. For ATCTCACG, the “PBM E-score” value was 0.0285. With ACCCGGAT the “PBM E-score” value was -0.156. With ACACGGCG the “PBM E-score” value was 0.00679. In the case of CGGACCAG, the “PBM E-score” value is reported as -0.181. In the case of CAAAGCGC, the “PBM E-score” value is reported as 0.0132. ATGAATGG was tested, and the “PBM E-score” value was 0.301. With CGCAATTC the “PBM E-score” value was 0.158. With ACGCGTAA the “PBM E-score” value was 0.086. AGGCTCAA was tested, and the “PBM E-score” value was -0.0732. TAGAGCGA was tested, and the “PBM E-score” value was -0.0129. In the case of TACGCCTA, the “PBM E-score” value is reported as -0.0912. AGAGTTTG was tested, and the “PBM E-score” value was 0.0211. In the case of GGGTGTCA, the “PBM E-score” value is reported as -0.0995. CGGCAACA was tested, and the “PBM E-score” value was 0.132. For AATAATGC, the “PBM E-score” value was 0.145. In the case of CCCCGACC, the “PBM E-score” value is reported as -0.1. AAACCTGC was tested, and the “PBM E-score” value was 0.0414. CGTCACCA was tested, and the “PBM E-score” value was -0.00244. For TACGAAAA, the “PBM E-score” value was 0.00792. ACTAAAAC was tested, and the “PBM E-score” value was 0.0962. With AGCTGTCC the “PBM E-score” value was -0.148. With ACGTTTCG the “PBM E-score” value was -0.0249. In the case of ACAGATAT, the “PBM E-score” value is reported as 0.141. AAACTAAG was tested, and the “PBM E-score” value was 0.185. CATCAAAA was tested, and the “PBM E-score” value was 0.175. With GAATAGGA the “PBM E-score” value was 0.108. For ATCATCAT, the “PBM E-score” value was 0.187. With GTTCGCCA the “PBM E-score” value was -0.165. In the case of GCCCGCAA, the “PBM E-score” value is reported as -0.00949. AAAGGACT was tested, and the “PBM E-score” value was -0.127. For ACACGCCA, the “PBM E-score” value was 0.0889. With ACTCCCGC the “PBM E-score” value was -0.0164. ATGTAAAC was tested, and the “PBM E-score” value was 0.203. For CGGAGCAA, the “PBM E-score” value was 0.0441. CGGATCTA was tested, and the “PBM E-score” value was 0.0466. With CTCTTACA the “PBM E-score” value was 0.0444. With ATTGGCGC the “PBM E-score” value was -0.0385. With CAAATGTC the “PBM E-score” value was -0.0915. TCATTTCA was tested, and the “PBM E-score” value was 0.0438. With CTGAGAAC the “PBM E-score” value was 0.0541. With AAAGGGCC the “PBM E-score” value was -0.255. With CTGGGAAG the “PBM E-score” value was -0.0869. In the case of CACTCGAC, the “PBM E-score” value is reported as 0.043. With GGGGTATA the “PBM E-score” value was 0.0444. CGGCATTC was tested, and the “PBM E-score” value was 0.0894. GGACAAAA was tested, and the “PBM E-score” value was 0.19. With ATGCACCC the “PBM E-score” value was -0.0275. In the case of AGCCCACA, the “PBM E-score” value is reported as -0.0647. ACATGGAC was tested, and the “PBM E-score” value was -0.085. With CTTCTGAA the “PBM E-score” value was 0.0667. With ATAGGTAG the “PBM E-score” value was -0.0174. AAGTTAAA was tested, and the “PBM E-score” value was 0.0659. ACATGGCG was tested, and the “PBM E-score” value was -0.064. CCGCGACG was tested, and the “PBM E-score” value was -0.212. With TAATCTCA the “PBM E-score” value was 0.228. GCTTGCAA was tested, and the “PBM E-score” value was 0.174. In the case of ACGGGCTA, the “PBM E-score” value is reported as -0.223. With ACGATAAG the “PBM E-score” value was 0.0474. AATTCTAC was tested, and the “PBM E-score” value was 0.116. With AAAAAGAG the “PBM E-score” value was 0.0349. In the case of CGGGACGA, the “PBM E-score” value is reported as 0.00102. In the case of ACTTAAGC, the “PBM E-score” value is reported as 0.153. With GGAATGGA the “PBM E-score” value was 0.00086. In the case of CCAGGGCC, the “PBM E-score” value is reported as -0.352. AAGTCCAG was tested, and the “PBM E-score” value was -0.156. In the case of AGACCGAG, the “PBM E-score” value is reported as -0.079. For GCGAATAA, the “PBM E-score” value was 0.102. In the case of GAACTTGC, the “PBM E-score” value is reported as -0.112. For CTTCGATA, the “PBM E-score” value was 0.0174. For GCCGACAC, the “PBM E-score” value was -0.187.
